Experimental data taken from patent US5470827A, “Method of producing iturin A and antifungal agent for profound mycosis” (Higeta Shoyu Co., Ltd., priority 1993, dated 1995).
Read-outs that look alike come from different tables or passages of the source. Part of at least one peptide drawing is inferred or uncertain, most often the ends. *1 amine or outer side, *2 acyl side, *3 side chain or, on linkers, in order; H or OH if unused. Where a SMILES comes first, the peptide text is derived from it. [ ]: non-standard residue; d: D form. ξ: configuration not given here. ξβ3hGly(undecyl) = CCCCCCCCCCCC(CC(=O)[*:2])N[*:1]; X1 = CC(C)CCCCCCCCCC(CC(=O)[*:2])N[*:1]

Legend:
[1] = system: Candida albicans IFM 40009; test: systemically fungi-infected mice, C. albicans, number of living mice; assay type: in vivo; conditions: 60 mg/kg
[2] = system: Aspergillus fumigatus Tsukuba No. 12; test: systemically fungi-infected mice, A. fumigatus, number of living mice; assay type: in vivo; conditions: 25 mg/kg
[3] = system: Cryptococcus neoformans 145A; test: systemically fungi-infected mice, C. neoformans, number of living mice; assay type: in vivo; conditions: 10 mg/kg
CHL/IU cells = assay type: cell-based; conditions: viability of CHL/IU cells

CCCCCCCCCCCC1CC(=O)N[C@@H](CC(N)=O)C(=O)N[C@H](Cc2ccc(O)cc2)C(=O)N[C@H](CC(N)=O)C(=O)N[C@@H](CCC(N)=O)C(=O)N2CCC[C@H]2C(=O)N[C@H](CC(N)=O)C(=O)N[C@@H](CO)C(=O)N1 (stereo partly drawn) [Iturin A2, iturin A2] (cyclo(N[dY][dN]QP[dN]S[ξβ3hGly(undecyl)]))
9: Number of Living Mice as Infected with A. fumigatus Tsukuba No. 12 ([2]; test period day 7)
7: Number of Living Mice as Infected with A. fumigatus Tsukuba No. 12 ([2]; test period day 8) | Number of Living Mice as Infected with C. neoformans 145A ([3]; test period day 6) | Number of Living Mice as Infected with C. neoformans 145A ([3]; test period day 7) | Number of Living Mice as Infected with C. neoformans 145A ([3]; test period day 8)
2: Number of Living Mice as Infected with C. albicans IFM40009 ([1]; test period day 10) | Number of Living Mice as Infected with C. neoformans 145A ([3]; test period day 11)
4: Number of Living Mice as Infected with A. fumigatus Tsukuba No. 12 ([2]; test period day 10) | Number of Living Mice as Infected with A. fumigatus Tsukuba No. 12 ([2]; test period day 11)
10: Number of Living Mice as Infected with C. albicans IFM40009 ([1]; test period day 1) | Number of Living Mice as Infected with C. albicans IFM40009 ([1]; test period day 2) | Number of Living Mice as Infected with A. fumigatus Tsukuba No. 12 ([2]; test period day 1) | Number of Living Mice as Infected with A. fumigatus Tsukuba No. 12 ([2]; test period day 2) | Number of Living Mice as Infected with A. fumigatus Tsukuba No. 12 ([2]; test period day 3) | Number of Living Mice as Infected with A. fumigatus Tsukuba No. 12 ([2]; test period day 4) | Number of Living Mice as Infected with A. fumigatus Tsukuba No. 12 ([2]; test period day 5) | Number of Living Mice as Infected with A. fumigatus Tsukuba No. 12 ([2]; test period day 6) | Number of Living Mice as Infected with C. neoformans 145A ([3]; test period day 1) | Number of Living Mice as Infected with C. neoformans 145A ([3]; test period day 2)
0: Number of Living Mice as Infected with C. albicans IFM40009 ([1]; test period day 13) | Number of Living Mice as Infected with C. albicans IFM40009 ([1]; test period day 14) | Number of Living Mice as Infected with C. albicans IFM40009 ([1]; test period day 15)
5: Number of Living Mice as Infected with C. albicans IFM40009 ([1]; test period day 3) | Number of Living Mice as Infected with C. albicans IFM40009 ([1]; test period day 4) | Number of Living Mice as Infected with C. albicans IFM40009 ([1]; test period day 5) | Number of Living Mice as Infected with C. albicans IFM40009 ([1]; test period day 6) | Number of Living Mice as Infected with A. fumigatus Tsukuba No. 12 ([2]; test period day 9) | Number of Living Mice as Infected with C. neoformans 145A ([3]; test period day 9)
8: Number of Living Mice as Infected with C. neoformans 145A ([3]; test period day 3) | Number of Living Mice as Infected with C. neoformans 145A ([3]; test period day 4) | Number of Living Mice as Infected with C. neoformans 145A ([3]; test period day 5)
1: Number of Living Mice as Infected with C. albicans IFM40009 ([1]; test period day 11) | Number of Living Mice as Infected with C. albicans IFM40009 ([1]; test period day 12) | Number of Living Mice as Infected with C. neoformans 145A ([3]; test period day 12) | Number of Living Mice as Infected with C. neoformans 145A ([3]; test period day 13) | Number of Living Mice as Infected with C. neoformans 145A ([3]; test period day 14) | Number of Living Mice as Infected with C. neoformans 145A ([3]; test period day 15)
3: Number of Living Mice as Infected with C. albicans IFM40009 ([1]; test period day 7) | Number of Living Mice as Infected with C. albicans IFM40009 ([1]; test period day 8) | Number of Living Mice as Infected with C. albicans IFM40009 ([1]; test period day 9) | Number of Living Mice as Infected with A. fumigatus Tsukuba No. 12 ([2]; test period day 12) | Number of Living Mice as Infected with A. fumigatus Tsukuba No. 12 ([2]; test period day 13) | Number of Living Mice as Infected with A. fumigatus Tsukuba No. 12 ([2]; test period day 14) | Number of Living Mice as Infected with A. fumigatus Tsukuba No. 12 ([2]; test period day 15) | Number of Living Mice as Infected with C. neoformans 145A ([3]; test period day 10)

CC(C)CCCCCCCCC[C@@H]1CC(=O)N[C@@H](CC(N)=O)C(=O)N[C@H](Cc2ccc(O)cc2)C(=O)N[C@H](CC(N)=O)C(=O)N[C@@H](CCC(N)=O)C(=O)N2CCC[C@H]2C(=O)N[C@H](CC(N)=O)C(=O)N[C@@H](CO)C(=O)N1 [Iturin A4, iturin A4] (cyclo(N[dY][dN]QP[dN]S[X1]))
6: Number of Living Mice as Infected with C. neoformans 145A ([3]; test period day 3)
1.2%: [At/Ac] × 100 (%) (CHL/IU cells; 1.0 mg/ml)
8.4%: [At/Ac] × 100 (%) (CHL/IU cells; 0.5 mg/ml)
5: Number of Living Mice as Infected with C. albicans IFM40009 ([1]; test period day 8) | Number of Living Mice as Infected with C. albicans IFM40009 ([1]; test period day 9) | Number of Living Mice as Infected with C. albicans IFM40009 ([1]; test period day 10) | Number of Living Mice as Infected with C. albicans IFM40009 ([1]; test period day 11) | Number of Living Mice as Infected with C. neoformans 145A ([3]; test period day 4) | Number of Living Mice as Infected with C. neoformans 145A ([3]; test period day 5) | Number of Living Mice as Infected with C. neoformans 145A ([3]; test period day 6) | Number of Living Mice as Infected with C. neoformans 145A ([3]; test period day 7) | Number of Living Mice as Infected with C. neoformans 145A ([3]; test period day 8) | Number of Living Mice as Infected with C. neoformans 145A ([3]; test period day 9) | Number of Living Mice as Infected with C. neoformans 145A ([3]; test period day 10)
8: Number of Living Mice as Infected with C. albicans IFM40009 ([1]; test period day 7)
9: Number of Living Mice as Infected with C. albicans IFM40009 ([1]; test period day 5) | Number of Living Mice as Infected with C. albicans IFM40009 ([1]; test period day 6) | Number of Living Mice as Infected with A. fumigatus Tsukuba No. 12 ([2]; test period day 10) | Number of Living Mice as Infected with A. fumigatus Tsukuba No. 12 ([2]; test period day 11) | Number of Living Mice as Infected with A. fumigatus Tsukuba No. 12 ([2]; test period day 12) | Number of Living Mice as Infected with A. fumigatus Tsukuba No. 12 ([2]; test period day 13) | Number of Living Mice as Infected with A. fumigatus Tsukuba No. 12 ([2]; test period day 14) | Number of Living Mice as Infected with A. fumigatus Tsukuba No. 12 ([2]; test period day 15)
4: Number of Living Mice as Infected with C. albicans IFM40009 ([1]; test period day 12)
1: Number of Living Mice as Infected with C. neoformans 145A ([3]; test period day 12)
96.0%: [At/Ac] × 100 (%) (CHL/IU cells; 0.25 mg/ml)
100.2%: [At/Ac] × 100 (%) (CHL/IU cells; 0.125 mg/ml)
104.2%: [At/Ac] × 100 (%) (CHL/IU cells; 0.06125 mg/ml)
10: Number of Living Mice as Infected with C. albicans IFM40009 ([1]; test period day 1) | Number of Living Mice as Infected with C. albicans IFM40009 ([1]; test period day 2) | Number of Living Mice as Infected with C. albicans IFM40009 ([1]; test period day 3) | Number of Living Mice as Infected with C. albicans IFM40009 ([1]; test period day 4) | Number of Living Mice as Infected with A. fumigatus Tsukuba No. 12 ([2]; test period day 1) | Number of Living Mice as Infected with A. fumigatus Tsukuba No. 12 ([2]; test period day 2) | Number of Living Mice as Infected with A. fumigatus Tsukuba No. 12 ([2]; test period day 3) | Number of Living Mice as Infected with A. fumigatus Tsukuba No. 12 ([2]; test period day 4) | Number of Living Mice as Infected with A. fumigatus Tsukuba No. 12 ([2]; test period day 5) | Number of Living Mice as Infected with A. fumigatus Tsukuba No. 12 ([2]; test period day 6) | Number of Living Mice as Infected with A. fumigatus Tsukuba No. 12 ([2]; test period day 7) | Number of Living Mice as Infected with A. fumigatus Tsukuba No. 12 ([2]; test period day 8) | Number of Living Mice as Infected with A. fumigatus Tsukuba No. 12 ([2]; test period day 9) | Number of Living Mice as Infected with C. neoformans 145A ([3]; test period day 1) | Number of Living Mice as Infected with C. neoformans 145A ([3]; test period day 2)
3: Number of Living Mice as Infected with C. albicans IFM40009 ([1]; test period day 13) | Number of Living Mice as Infected with C. albicans IFM40009 ([1]; test period day 14) | Number of Living Mice as Infected with C. albicans IFM40009 ([1]; test period day 15) | Number of Living Mice as Infected with C. neoformans 145A ([3]; test period day 11)
0: Number of Living Mice as Infected with C. neoformans 145A ([3]; test period day 13) | Number of Living Mice as Infected with C. neoformans 145A ([3]; test period day 14) | Number of Living Mice as Infected with C. neoformans 145A ([3]; test period day 15)
